Patent US6395745B1, “Alkaloid halide salts of swainsonine and methods of use” (priority 1997, dated 2002)
For at least one compound, name, drawing or mass did not settle the structure.

Test: pKa of bulk drug substance
Type: physicochemical

## Cl.O[C@H]1[C@H]2[C@H](O)CCCN2C[C@@H]1O [swainsonine hydrochloride, (−)-(1S,2S,8R,8aR)-1,2,8-trihydroxyoctahydro-indolizidine hydrochloride salt]
  pKa: 7.4
